Data reported in the supplement of paper PMC12823440, “Inhibitors supercharge kinase turnover through native proteolytic circuits” (Nature, 2025).
The list shows a part of the results. Hit calls seldom repeat between salt and free forms of one compound.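 Kinases were expressed as nanoluciferase fusions in K562 cells and luminescence was read every 4 h between 2 and 18 h as percent of control, DMSO set to 100% and a positive control to 0%. A time point counts as decreased when the signal drops significantly (2 sigma). The hit call is the authors' own, does not follow from the count of time points alone, and its rule is not shown.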

Chains of the proteins cited; added tags and fusions are not shown. Lines headed by an entry give the natural chain unless they say otherwise; changes in a name come on top.
UniProt Q8IWU2: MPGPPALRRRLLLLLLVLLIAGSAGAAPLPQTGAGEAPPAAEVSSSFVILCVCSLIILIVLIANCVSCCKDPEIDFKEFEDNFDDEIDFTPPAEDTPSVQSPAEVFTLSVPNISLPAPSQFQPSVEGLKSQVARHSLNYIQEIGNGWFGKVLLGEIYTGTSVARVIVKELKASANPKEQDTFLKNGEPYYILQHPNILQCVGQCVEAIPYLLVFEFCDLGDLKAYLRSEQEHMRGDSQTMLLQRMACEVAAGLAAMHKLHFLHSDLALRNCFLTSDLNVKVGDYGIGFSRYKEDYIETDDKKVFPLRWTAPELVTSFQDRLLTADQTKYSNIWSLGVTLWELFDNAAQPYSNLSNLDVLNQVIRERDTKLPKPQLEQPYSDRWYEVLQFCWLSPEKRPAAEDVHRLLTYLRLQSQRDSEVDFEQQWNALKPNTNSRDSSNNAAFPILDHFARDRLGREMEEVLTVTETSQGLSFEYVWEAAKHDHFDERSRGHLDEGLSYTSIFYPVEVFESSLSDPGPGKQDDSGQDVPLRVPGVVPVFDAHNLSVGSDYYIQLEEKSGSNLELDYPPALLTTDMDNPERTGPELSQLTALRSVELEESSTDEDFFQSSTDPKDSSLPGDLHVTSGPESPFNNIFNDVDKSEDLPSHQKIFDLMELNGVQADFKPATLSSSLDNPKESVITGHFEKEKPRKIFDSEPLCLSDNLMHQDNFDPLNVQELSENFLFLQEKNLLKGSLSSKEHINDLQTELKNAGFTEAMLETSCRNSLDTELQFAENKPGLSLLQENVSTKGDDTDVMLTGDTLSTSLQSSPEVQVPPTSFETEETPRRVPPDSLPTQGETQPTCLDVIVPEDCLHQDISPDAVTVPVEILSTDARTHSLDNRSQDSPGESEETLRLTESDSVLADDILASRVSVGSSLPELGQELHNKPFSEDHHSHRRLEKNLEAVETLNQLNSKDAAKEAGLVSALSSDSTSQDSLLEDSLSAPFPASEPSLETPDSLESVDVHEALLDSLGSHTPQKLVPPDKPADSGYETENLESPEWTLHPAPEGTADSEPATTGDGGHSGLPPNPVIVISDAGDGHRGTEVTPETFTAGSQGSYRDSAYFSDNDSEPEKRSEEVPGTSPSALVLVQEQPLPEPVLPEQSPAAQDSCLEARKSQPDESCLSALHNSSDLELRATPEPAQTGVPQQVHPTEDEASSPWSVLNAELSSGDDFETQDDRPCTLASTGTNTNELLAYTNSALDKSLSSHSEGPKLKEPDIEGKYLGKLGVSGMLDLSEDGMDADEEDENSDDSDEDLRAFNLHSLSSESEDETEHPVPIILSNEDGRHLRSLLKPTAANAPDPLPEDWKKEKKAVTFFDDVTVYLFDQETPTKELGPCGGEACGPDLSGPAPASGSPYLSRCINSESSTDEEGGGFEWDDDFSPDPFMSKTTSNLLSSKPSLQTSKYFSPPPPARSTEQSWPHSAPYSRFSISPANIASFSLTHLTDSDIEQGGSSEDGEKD
UniProt P07948: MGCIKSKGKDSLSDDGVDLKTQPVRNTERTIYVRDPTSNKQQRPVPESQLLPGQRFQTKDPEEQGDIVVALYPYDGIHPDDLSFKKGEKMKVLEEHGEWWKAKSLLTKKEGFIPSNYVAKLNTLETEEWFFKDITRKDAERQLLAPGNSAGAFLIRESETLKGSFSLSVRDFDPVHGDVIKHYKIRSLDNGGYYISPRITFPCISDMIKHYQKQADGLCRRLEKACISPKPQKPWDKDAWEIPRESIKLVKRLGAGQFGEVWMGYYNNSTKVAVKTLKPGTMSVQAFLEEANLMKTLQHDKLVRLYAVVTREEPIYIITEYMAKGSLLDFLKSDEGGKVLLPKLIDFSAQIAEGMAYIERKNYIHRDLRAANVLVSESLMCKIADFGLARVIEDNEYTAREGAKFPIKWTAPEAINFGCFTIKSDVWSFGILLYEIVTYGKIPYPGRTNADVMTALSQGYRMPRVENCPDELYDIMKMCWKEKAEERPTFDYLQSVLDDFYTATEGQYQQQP
UniProt Q12851: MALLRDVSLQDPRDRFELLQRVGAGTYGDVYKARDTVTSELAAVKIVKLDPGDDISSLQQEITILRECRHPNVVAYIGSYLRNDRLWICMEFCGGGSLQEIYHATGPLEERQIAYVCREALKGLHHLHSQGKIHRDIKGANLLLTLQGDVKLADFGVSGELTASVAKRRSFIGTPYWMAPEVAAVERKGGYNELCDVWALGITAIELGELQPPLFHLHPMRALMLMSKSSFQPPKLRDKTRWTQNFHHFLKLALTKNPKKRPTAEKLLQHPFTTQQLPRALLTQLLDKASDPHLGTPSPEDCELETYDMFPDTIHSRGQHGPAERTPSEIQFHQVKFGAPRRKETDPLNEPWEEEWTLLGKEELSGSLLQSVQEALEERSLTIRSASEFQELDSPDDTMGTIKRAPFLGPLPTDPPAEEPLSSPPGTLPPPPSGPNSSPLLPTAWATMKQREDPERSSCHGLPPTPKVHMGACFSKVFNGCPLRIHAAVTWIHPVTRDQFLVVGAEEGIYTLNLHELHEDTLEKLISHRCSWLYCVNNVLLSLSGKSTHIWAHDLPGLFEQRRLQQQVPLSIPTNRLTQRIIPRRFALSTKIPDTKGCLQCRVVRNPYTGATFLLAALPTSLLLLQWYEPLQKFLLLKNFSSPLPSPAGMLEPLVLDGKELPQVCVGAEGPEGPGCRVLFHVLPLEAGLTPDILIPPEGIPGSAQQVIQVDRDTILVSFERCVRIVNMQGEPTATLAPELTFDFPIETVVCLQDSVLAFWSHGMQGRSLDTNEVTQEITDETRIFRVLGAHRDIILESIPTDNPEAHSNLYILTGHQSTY
UniProt P28482, whole entry: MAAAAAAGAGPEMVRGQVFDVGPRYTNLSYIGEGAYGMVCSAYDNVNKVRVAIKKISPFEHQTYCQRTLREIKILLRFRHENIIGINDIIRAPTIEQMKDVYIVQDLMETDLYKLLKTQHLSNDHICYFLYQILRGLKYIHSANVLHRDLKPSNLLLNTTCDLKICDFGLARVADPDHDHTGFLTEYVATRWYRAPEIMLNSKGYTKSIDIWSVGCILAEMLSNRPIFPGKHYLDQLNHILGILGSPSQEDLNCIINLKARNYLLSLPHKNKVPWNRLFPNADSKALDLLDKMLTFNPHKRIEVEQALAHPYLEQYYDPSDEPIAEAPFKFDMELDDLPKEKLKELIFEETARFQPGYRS
UniProt P31152, whole entry: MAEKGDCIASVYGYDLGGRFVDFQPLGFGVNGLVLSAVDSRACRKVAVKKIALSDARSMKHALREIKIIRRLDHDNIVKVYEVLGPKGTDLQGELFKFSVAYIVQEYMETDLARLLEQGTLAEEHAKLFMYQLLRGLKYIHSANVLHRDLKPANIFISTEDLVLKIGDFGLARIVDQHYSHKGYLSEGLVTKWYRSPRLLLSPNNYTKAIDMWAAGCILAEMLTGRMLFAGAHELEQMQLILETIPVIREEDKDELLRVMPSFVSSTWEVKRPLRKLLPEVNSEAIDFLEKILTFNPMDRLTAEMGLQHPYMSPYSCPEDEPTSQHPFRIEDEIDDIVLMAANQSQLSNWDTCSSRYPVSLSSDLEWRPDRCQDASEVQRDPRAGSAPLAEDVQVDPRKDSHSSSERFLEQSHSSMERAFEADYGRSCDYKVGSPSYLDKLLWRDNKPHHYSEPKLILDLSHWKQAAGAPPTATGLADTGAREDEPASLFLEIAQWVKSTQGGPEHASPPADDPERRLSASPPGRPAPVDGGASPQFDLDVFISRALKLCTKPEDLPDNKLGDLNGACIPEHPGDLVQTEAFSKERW
UniProt Q9BUB5: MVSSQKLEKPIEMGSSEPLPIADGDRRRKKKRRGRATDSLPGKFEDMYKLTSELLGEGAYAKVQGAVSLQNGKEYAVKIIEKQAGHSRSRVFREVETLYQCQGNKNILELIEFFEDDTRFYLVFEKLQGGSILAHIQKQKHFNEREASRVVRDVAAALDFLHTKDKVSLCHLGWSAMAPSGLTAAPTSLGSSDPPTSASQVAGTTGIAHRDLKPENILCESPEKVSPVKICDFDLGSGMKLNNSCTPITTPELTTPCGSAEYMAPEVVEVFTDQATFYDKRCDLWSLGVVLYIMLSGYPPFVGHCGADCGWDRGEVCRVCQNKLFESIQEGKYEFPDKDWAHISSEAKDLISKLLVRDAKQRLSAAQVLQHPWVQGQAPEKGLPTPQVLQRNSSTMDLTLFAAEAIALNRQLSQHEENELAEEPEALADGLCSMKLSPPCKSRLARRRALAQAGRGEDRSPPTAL
UniProt Q16620, whole entry, looked up: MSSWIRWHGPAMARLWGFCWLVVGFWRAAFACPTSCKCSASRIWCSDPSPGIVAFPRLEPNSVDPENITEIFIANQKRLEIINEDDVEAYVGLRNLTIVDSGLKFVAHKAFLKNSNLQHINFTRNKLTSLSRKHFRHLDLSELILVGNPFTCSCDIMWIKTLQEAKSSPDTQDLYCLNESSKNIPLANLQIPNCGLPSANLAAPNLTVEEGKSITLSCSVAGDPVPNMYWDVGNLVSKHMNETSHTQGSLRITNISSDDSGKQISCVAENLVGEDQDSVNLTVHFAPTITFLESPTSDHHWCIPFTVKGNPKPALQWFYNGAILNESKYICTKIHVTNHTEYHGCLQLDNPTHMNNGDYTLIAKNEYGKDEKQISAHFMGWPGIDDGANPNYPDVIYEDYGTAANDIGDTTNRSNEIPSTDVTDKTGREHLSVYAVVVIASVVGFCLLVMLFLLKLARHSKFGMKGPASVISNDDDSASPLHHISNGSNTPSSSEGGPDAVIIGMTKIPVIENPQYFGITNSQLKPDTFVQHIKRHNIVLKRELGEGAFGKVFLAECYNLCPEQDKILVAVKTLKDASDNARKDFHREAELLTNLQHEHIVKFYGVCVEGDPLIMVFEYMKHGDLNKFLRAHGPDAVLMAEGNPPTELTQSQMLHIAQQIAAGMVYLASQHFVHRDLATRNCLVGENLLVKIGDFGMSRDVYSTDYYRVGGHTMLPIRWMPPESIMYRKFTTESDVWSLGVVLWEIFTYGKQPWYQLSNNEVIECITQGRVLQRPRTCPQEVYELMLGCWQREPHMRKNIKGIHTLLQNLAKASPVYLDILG
UniProt P49137, whole entry, looked up: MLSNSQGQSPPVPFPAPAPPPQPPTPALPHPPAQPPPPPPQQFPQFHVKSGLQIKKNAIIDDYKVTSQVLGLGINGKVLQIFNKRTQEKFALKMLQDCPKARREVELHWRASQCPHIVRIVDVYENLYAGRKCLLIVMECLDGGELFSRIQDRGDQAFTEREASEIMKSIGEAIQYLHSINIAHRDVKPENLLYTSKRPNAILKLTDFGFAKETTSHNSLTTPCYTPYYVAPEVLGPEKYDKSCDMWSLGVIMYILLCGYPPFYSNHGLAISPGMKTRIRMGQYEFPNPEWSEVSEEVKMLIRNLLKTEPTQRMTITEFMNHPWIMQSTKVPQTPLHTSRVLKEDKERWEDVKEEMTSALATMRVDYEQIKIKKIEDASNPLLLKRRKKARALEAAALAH

Key:
Test in all cases: number of time points (of 5) at which kinase-Nluc abundance scored as decreased, DMSO-normalised (count); higher = more persistent destabilization
Details in all cases: K562; 2-18 h
[1] = molecular target: LMTK2 (UniProt Q8IWU2)
[2] = molecular target: LYN (UniProt P07948)
[3] = molecular target: MAP2K1 (UniProt Q02750)
[4] = molecular target: MAP2K2 (UniProt P36507)
[5] = molecular target: MAP4K2 (UniProt Q12851)
[6] = molecular target: MAPK1 (UniProt P28482)
[7] = molecular target: MAPK4 (UniProt P31152)
[8] = molecular target: MKNK1 (UniProt Q9BUB5)
[9] = molecular target: NTRK2 (UniProt Q16620)
[10] = molecular target: MAPKAPK2 (UniProt P49137)

Measured: number of time points

Cc1c(Cn2c(C)nc3c(C(=O)O)cc(N4CCOCC4)cc32)cccc1C(F)(F)F (10 µM)
not listed: [10]
0: all other assays above

CN(C)C(=O)/C(C#N)=C/c1ccc(-c2nc3cnc4[nH]ccc4c3n2C2CCCCC2)o1 (10 µM)
0: all assays above

CN(C)Cc1ccc(-c2cnn3c(-c4cccc(NC(=O)c5cccc(C(F)(F)F)c5)c4)ccnc23)cc1 (2.5 µM)
0: all assays above

COc1cc(Nc2ncc3c(n2)-c2ccc(Cl)cc2C(c2c(F)cccc2OC)=NC3)ccc1C(=O)O [Alisertib] (2.5 µM)
0: all assays above

O=C1NCCc2[nH]c(-c3ccnc(-c4cnc5ccccc5c4)c3)cc21 (10 µM)
not listed: [10]
0: all other assays above

O=c1cc(N2CCOCC2)oc2c(-c3ccccc3)cccc12 (10 µM)
0: all assays above
